From the supplement of paper PMC6143611 come the findings set out here.

The subject of test [1] is Danio rerio larva rod photoreceptor outer segment. The test can be described thus: rod outer segment growth distance Dg, difference from same-week DMSO control mean; higher = more outer segment growth. Conditions: 20 µM; treatment time: 4 days (6-10 dpf).
Test [2] has the same test system. The test can be described thus: rod outer segment shedding distance Ds, difference from same-week DMSO control mean; higher = less outer segment shedding. As to conditions: 20 µM; treatment time: 4 days (6-10 dpf).

“And” between values parts separate entries of the source, which are not always exact repeats. Identical values can stand only once. Counter-ions that a name gives are not always drawn. ± gives the uncertainty stated by the source. The list shows a part of the results. Part of the spread comes from offsets between plates or batches.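 Larvae carried a heat-shock-induced fluorescent stripe in rod outer segments, set at 6 dpf; the shedding distance runs from this stripe to the outer segment tip, measured in confocal stacks, about three fish per compound. The controls got 0.2% DMSO vehicle, and the paper flagged compounds with at least a 20% change against the same-week control and p < 0.001 (Dunnett test on mixed-effects models).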

`Nc1nc(N)c(N=O)c(OCC2CCCCC2)n1`: the “rod outer segment growth distance Dg” value in test [1] is -0.84 ± 0.2 um. Moreover, in test [2], the “rod outer segment shedding distance Ds” value was 0.69 ± 0.29 um.

Turning to `C[C@]12C=CC(=O)C=C1CC[C@H]1[C@@H]3C[C@@H](O)[C@](O)(C(=O)CO)[C@@]3(C)C[C@H](O)[C@@]12F` [Triamcinolone], the “rod outer segment growth distance Dg” value in test [1] turned out to be 0.11 ± 0.25 um. In test [2], the “rod outer segment shedding distance Ds” value was -0.19 ± 0.32 um.

In the case of `O=C(Nc1ccccc1)Nc1ccc(-c2ccc(C(=O)[C@@H]3CCC[C@H]3C(=O)O)cc2)cc1`, the “rod outer segment growth distance Dg” value in test [1] was -0.95 ± 0.23 um. In addition, in test [2], the “rod outer segment shedding distance Ds” value was -0.15 ± 0.13 um.

For `O=c1cc(-c2ccc(O)cc2)oc2cc(O)cc(O)c12` [Apigenin], the “rod outer segment growth distance Dg” value in test [1] was 0.21 ± 0.24 um. The “rod outer segment shedding distance Ds” value in test [2] turned out to be 0.78 ± 0.39 um.

Regarding `CC(C)(CO)c1cc2cc(NC(=O)C3(c4ccc5c(c4)OC(F)(F)O5)CC3)c(F)cc2n1C[C@@H](O)CO`, the “rod outer segment growth distance Dg” value in test [1] was -0.81 ± 0.18 um. Moreover, in test [2], the “rod outer segment shedding distance Ds” value was 0.02 ± 0.13 um.

Turning to `CNC(=O)c1c(F)cccc1Nc1nc(Nc2cc3c(cc2OC)CCN3C(=O)CN(C)C)nc2[nH]ccc12`, in test [1], the “rod outer segment growth distance Dg” value is -1.71 ± 0.24 um. Further, the “rod outer segment shedding distance Ds” value in test [2] is -0.11 ± 0.19 um.

Consider `C[C@]1(c2nc3c(C(N)=O)cccc3[nH]2)CCCN1` [Veliparib (ABT-888)], for which the “rod outer segment growth distance Dg” value in test [1] is -0.15 ± 0.23 um. In addition, in test [2], the “rod outer segment shedding distance Ds” value was -0.8 ± 0.27 um.

As to `CC[C@H]1OC(=O)[C@H](C)[C@@H](O[C@H]2C[C@@](C)(OC)[C@@H](O)[C@H](C)O2)[C@H](C)[C@@H](O[C@@H]2O[C@H](C)C[C@H](N(C)C)[C@H]2O)[C@](C)(O)C[C@@H](C)/C(=N\OCOCCOC)[C@H](C)[C@@H](O)[C@]1(C)O` [Roxithromycin], the “rod outer segment growth distance Dg” value in test [1] is -0.48 ± 0.24 um. Besides, the “rod outer segment shedding distance Ds” value in test [2] was -0.32 ± 0.28 um.

Turning to `CCOC(=O)[C@H](CCc1ccccc1)N[C@@H](C)C(=O)N1Cc2ccccc2C[C@H]1C(=O)O` [Quinapril HCl], the “rod outer segment growth distance Dg” value in test [1] amounted to 0.94 ± 0.3 um. For the same compound, the “rod outer segment shedding distance Ds” value in test [2] is -0.61 ± 0.17 um.

As to `c1ccc2c(CC3=NCCN3)cccc2c1` [Naphazoline HCl], the “rod outer segment growth distance Dg” value in test [1] is -0.26 ± 0.23 um. Moreover, the “rod outer segment shedding distance Ds” value in test [2] is 0.26 ± 0.31 um.

Regarding `CNC(=O)c1ccc(N2C(=S)N(c3cnc(C#N)c(C(F)(F)F)c3)C(=O)C23CCC3)cc1F`, the “rod outer segment growth distance Dg” value in test [1] came to 0.68 ± 0.17 um. For the same compound, the “rod outer segment shedding distance Ds” value in test [2] was -0.49 ± 0.12 um.

For `O=c1[nH]c(=O)n(C2CCCO2)cc1F` (stereo not drawn), the “rod outer segment growth distance Dg” value in test [1] stood at 1.71 ± 0.17 um. Moreover, in test [2], the “rod outer segment shedding distance Ds” value was 0.13 ± 0.17 um.

As to `CN1C2CCCC1CC(NC(=O)c1nn(C)c3ccccc13)C2` (stereo not drawn) [Granisetron HCl], the “rod outer segment growth distance Dg” value in test [1] was determined as 0 ± 0.32 um. Moreover, in test [2], the “rod outer segment shedding distance Ds” value was found to be 0.25 ± 0.21 um.

As to `Cc1noc(-c2ccc(CSCCC(=O)O)cc2)c1NC(=O)OC(C)c1ccccc1Cl` (stereo not drawn), the “rod outer segment growth distance Dg” value in test [1] was found to be 0.29 ± 0.17 um. Further, the “rod outer segment shedding distance Ds” value in test [2] was -0.15 ± 0.18 um.

Regarding `NC(=O)c1cccnc1` [Nicotinamide (Vitamin B3)], the “rod outer segment growth distance Dg” value in test [1] was found to be 1.18 ± 0.23 um. For the same compound, in test [2], the “rod outer segment shedding distance Ds” value came out at 0.61 ± 0.27 um.

On to `COC(=O)[C@H](CCCN=C(N)N)NS(=O)(=O)c1ccc(C)cc1`, for which the “rod outer segment shedding distance Ds” value in test [2] is -0.8 ± 0.34 um.

On to `Cn1cc(-c2cnn3c(N)c(Br)c([C@@H]4CCCNC4)nc23)cn1`, for which, in test [1], the “rod outer segment growth distance Dg” value was -0.34 ± 0.16 um. Moreover, the “rod outer segment shedding distance Ds” value in test [2] is -0.44 ± 0.11 um.

As to `Cc1[nH]c(=O)c(C#N)cc1-c1ccncc1` [Milrinone], in test [1], the “rod outer segment growth distance Dg” value was -0.06 ± 0.22 um. Moreover, the “rod outer segment shedding distance Ds” value in test [2] came to 0.29 ± 0.28 um.

Regarding `CO/N=C(\C(=O)N[C@@H]1C(=O)N2C(C(=O)OCOC(=O)C(C)(C)C)=C(/C=C\c3scnc3C)CS[C@H]12)c1csc(N)n1` [Cefditoren Pivoxil], the “rod outer segment growth distance Dg” value in test [1] was -0.69 ± 0.32 um. Moreover, the “rod outer segment shedding distance Ds” value in test [2] was -1.06 ± 0.32 um.

For `c1ccc(-c2nn3c(c2-c2ccnc4cc(OCCN5CCOCC5)ccc24)CCC3)nc1`, the “rod outer segment growth distance Dg” value in test [1] was -0.25 ± 0.14 um. Moreover, in test [2], the “rod outer segment shedding distance Ds” value turned out to be 0 ± 0.12 um.

Turning to `OCCN1C[C@H](O)[C@@H](O)[C@H](O)[C@H]1CO` [Miglitol], in test [1], the “rod outer segment growth distance Dg” value was -0.78 ± 0.29 um. Moreover, the “rod outer segment shedding distance Ds” value in test [2] is -0.18 ± 0.23 um.

As to `Nc1ccn([C@@H]2O[C@H](CO)[C@@H](O)[C@@H]2O)c(=O)n1` [Cytarabine], in test [1], the “rod outer segment growth distance Dg” value was -0.6 ± 0.26 um. The “rod outer segment shedding distance Ds” value in test [2] is -0.26 ± 0.2 um.

Take `C[C@@H]1CCN(C(=O)CC#N)C[C@@H]1N(C)c1ncnc2[nH]ccc12`: the “rod outer segment shedding distance Ds” value in test [2] was 0.24 um and 0.23 um.

With `CCCC(CCC)C(=O)O` [Valproic acid sodium salt (Sodium valproate)], in test [1], the “rod outer segment growth distance Dg” value is -0.6 ± 0.3 um. For the same compound, the “rod outer segment shedding distance Ds” value in test [2] was -0.49 ± 0.32 um.

For `O=C(/C=C/c1cccc(S(=O)(=O)Nc2ccccc2)c1)NO` [Belinostat (PXD101)], in test [1], the “rod outer segment growth distance Dg” value was -0.88 ± 0.12 um. For the same compound, the “rod outer segment shedding distance Ds” value in test [2] stood at 0.38 ± 0.19 um.

As for `CN1C(C(=O)Nc2ccccn2)=C(O)c2sc(Cl)cc2S1(=O)=O` [Lornoxicam], in test [1], the “rod outer segment growth distance Dg” value amounted to 1.08 ± 0.25 um. Besides, in test [2], the “rod outer segment shedding distance Ds” value was -0.92 ± 0.29 um.

On to `Cn1cnc(=N)c2[nH]cnc21` [3-Methyladenine], for which the “rod outer segment growth distance Dg” value in test [1] is -0.42 ± 0.14 um. Further, in test [2], the “rod outer segment shedding distance Ds” value was -0.03 ± 0.13 um.

Consider `Cc1ccccc1-n1c(Cn2nc(-c3cccc(O)c3)c3c(N)ncnc32)nc2cccc(C)c2c1=O`, for which the “rod outer segment shedding distance Ds” value in test [2] is 0.4 ± 0.25 um.

In the case of `Nc1nc2c(ncn2[C@@H]2O[C@H](CO)[C@@H](O)[C@H]2O)c(=O)[nH]1` [Guanosine], the “rod outer segment growth distance Dg” value in test [1] stood at 0.37 ± 0.25 um. The “rod outer segment shedding distance Ds” value in test [2] was -0.53 ± 0.36 um.

On to `CCCN[C@H]1CCc2nc(N)sc2C1` [Pramipexole], for which, in test [1], the “rod outer segment growth distance Dg” value came out at 0.66 ± 0.29 um. The “rod outer segment shedding distance Ds” value in test [2] is 1.02 ± 0.26 um.

As to `Cn1nc(C(C)(C)C)cc1C(=O)N[C@@H](Cc1cccc(Cl)c1)C(=O)NCC#N` [Cathepsin Inhibitor 1], the “rod outer segment growth distance Dg” value in test [1] is 0.96 ± 0.16 um. For the same compound, the “rod outer segment shedding distance Ds” value in test [2] was -0.28 ± 0.13 um.

On to `CS(=O)(=O)c1ccc(C(=O)Nc2ccc(Cl)c(-c3ccccn3)c2)c(Cl)c1` [Vismodegib (GDC-0449)], for which, in test [1], the “rod outer segment growth distance Dg” value was -0.89 ± 0.15 um. The “rod outer segment shedding distance Ds” value in test [2] was -0.72 ± 0.2 um.

With `CC(C)C[C@@H](C=O)NC(=O)[C@H](CC(C)C)NC(=O)[C@H](CC(C)C)NC(=O)OCc1ccccc1`, the “rod outer segment growth distance Dg” value in test [1] was -0.46 ± 0.19 um. For the same compound, in test [2], the “rod outer segment shedding distance Ds” value worked out at 0.25 ± 0.097 um.
